Patent publication US20240382443A1, “GENERATION OF S-NITROSOACETYLCYSTEINE” (The UAB Research Foundation, priority 2023, published 2024)

Experiment: NO and NO2 levels in SNOAC aerosols and reaction vessel headspace
Assay type: physicochemical
Settings: 100 mM SNOAC nebulized 0.2 mL/min, 4 L/min

## CC(=O)N[C@@H](CSN=O)C(=O)O [SNOAC, S-nitroso-N-acetylcysteine]
Carrier gas 100% oxygen
  Nitric oxide (NO): 5.2 ± 0.9 ppm
Carrier gas air
  Nitric oxide (NO): 5.6 ± 1.2 ppm
Carrier gas nitrogen
  Nitric oxide (NO): 5.5 ppm
